Measurements published in article PMC12690989.
No constants are given. Whether binding was seen depends on the method and setting. In cells and extracts the contact can be indirect. Some entries that bind do so weakly or less than the wild type.

By UniProt entry, the sequences of proteins in these tests, tags left out. Where a name states a change or a piece, a line headed by the entry shows the natural chain unless it says otherwise.
UniProt P08172: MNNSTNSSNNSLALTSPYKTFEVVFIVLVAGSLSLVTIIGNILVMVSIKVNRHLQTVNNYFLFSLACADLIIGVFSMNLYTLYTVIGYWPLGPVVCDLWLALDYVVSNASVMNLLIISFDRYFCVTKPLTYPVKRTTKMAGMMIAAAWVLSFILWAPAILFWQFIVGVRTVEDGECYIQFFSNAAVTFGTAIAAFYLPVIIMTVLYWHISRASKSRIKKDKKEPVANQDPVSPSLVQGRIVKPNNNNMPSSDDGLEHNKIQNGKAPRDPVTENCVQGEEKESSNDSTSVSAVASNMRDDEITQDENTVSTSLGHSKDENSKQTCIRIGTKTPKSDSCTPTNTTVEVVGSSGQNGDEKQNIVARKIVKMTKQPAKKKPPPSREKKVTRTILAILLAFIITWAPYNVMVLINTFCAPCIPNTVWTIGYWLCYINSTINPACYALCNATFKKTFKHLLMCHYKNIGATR
UniProt P49407: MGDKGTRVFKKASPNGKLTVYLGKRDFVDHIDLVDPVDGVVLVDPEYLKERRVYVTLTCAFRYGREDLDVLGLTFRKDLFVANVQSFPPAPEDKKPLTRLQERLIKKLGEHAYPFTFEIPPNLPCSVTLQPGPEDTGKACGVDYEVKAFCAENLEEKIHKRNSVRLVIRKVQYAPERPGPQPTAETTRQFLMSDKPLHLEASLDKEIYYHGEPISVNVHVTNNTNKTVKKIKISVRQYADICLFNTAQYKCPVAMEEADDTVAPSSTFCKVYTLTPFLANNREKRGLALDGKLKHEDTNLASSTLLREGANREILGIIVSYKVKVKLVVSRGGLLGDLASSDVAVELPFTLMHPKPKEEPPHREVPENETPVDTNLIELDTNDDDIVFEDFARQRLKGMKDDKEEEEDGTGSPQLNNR
UniProt P32121: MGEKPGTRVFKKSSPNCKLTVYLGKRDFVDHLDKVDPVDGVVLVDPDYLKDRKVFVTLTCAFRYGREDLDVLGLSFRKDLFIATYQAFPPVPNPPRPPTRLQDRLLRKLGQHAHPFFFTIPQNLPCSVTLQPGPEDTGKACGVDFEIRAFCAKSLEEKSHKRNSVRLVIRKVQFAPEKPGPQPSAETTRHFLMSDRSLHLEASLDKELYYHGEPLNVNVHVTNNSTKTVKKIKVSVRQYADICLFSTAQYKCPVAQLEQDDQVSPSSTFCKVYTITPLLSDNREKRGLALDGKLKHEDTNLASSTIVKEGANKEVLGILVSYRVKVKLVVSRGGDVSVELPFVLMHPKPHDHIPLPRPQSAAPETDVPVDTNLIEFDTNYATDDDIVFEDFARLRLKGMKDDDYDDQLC

What was measured:
[1] = target: M2 muscarinic receptor fused to Renilla luciferase (M2R-RLuc) (human) (UniProt P08172); test: condition: only cells preincubated with atropine (muscarinic antagonist) before 10 µM carbachol; FRET or BRET; BRET1 in intact HEK 293T cells co-expressing M2R-RLuc, GRK2 and Arr-2-YFP or Arr-3-YFP; preincubated with atropine at multiple concentrations for 15 min, then 10 uM carbachol for 20 min, 25 °C
[2] = target: M2 muscarinic receptor fused to Renilla luciferase (M2R-RLuc) (human) (UniProt P08172); test: condition: only without agonist (cells treated with Control IgG or DCD IgG alone); FRET or BRET; BRET1 in intact HEK 293T cells co-expressing M2R-RLuc, GRK2 and Arr-2-YFP or Arr-3-YFP; no agonist, cells treated with Control IgG or DCD IgG alone at various concentrations for 30 or 60 min, 25 °C; delta-BRET against buffer alone
[3] = target: M2 muscarinic receptor fused to Renilla luciferase (M2R-RLuc) (human) (UniProt P08172); test: FRET or BRET; BRET1 in intact HEK 293T cells co-expressing M2R-RLuc, GRK2 and Arr-2-YFP or Arr-3-YFP; carbachol (various concentrations or 10 uM) for 20, 30 or 60 min at 25 °C in KRHA buffer, 5 uM coelenterazine h; delta-BRET against buffer alone, in mB; in some series cells were preincubated with gallamine, Control IgG, DCD IgG or DCD IgG/pM2 before carbachol

## arrestin-2 fused to the enhanced yellow fluorescence protein (Arr-2-YFP) (from UniProt P49407 1-418)
[1]
  binding: no binding
[2]
  binding: no binding
[3]
  binding: binds

## arrestin-3 fused to the enhanced yellow fluorescence protein (Arr-3-YFP) (from UniProt P32121 1-409)
[1]
  binding: no binding
[2]
  binding: no binding
[3]
  binding: binds
